Measurements as given in PubChem BioAssay AID504467 (National Center for Advancing Translational Sciences (NCATS), 2011).
In all, about 330,000 compounds went through this assay and about 7,700 (2.3%) were called active. The inconclusive results got no clear call from the source; some entries with a clear call stand among them for comparison. Calls follow the shape of the dose curve; as a rule, active = well fitted inhibition curve with a large enough effect; inconclusive = small, poorly fitted or top-dose-only effect, or effect the other way; inactive = flat fitted curve, though single readings scatter. Where the call is inconclusive, the potency comes from a doubtful curve fit.
Potency is read from the fitted curve at half-maximal effect.

Assay: qHTS screen for small molecules that inhibit ELG1-dependent DNA repair in human embryonic kidney (HEK293T) cells expressing luciferase-tagged ELG1; also: nearly all actives have a fitted effect of over 55% in size
Conditions: HEK293T ELG1-luciferase reporter, luminescence, 16 h, DNA damage induced by 5-fluorouridine; series mostly up to 46.1 µM
In short: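 Step one: seed 2,000 cells per well. Step two: pin-transfer compound or DMSO alongside 5-fluorouridine. Step three: incubate 16 hr, 37 °C, 5% CO2. Step four: add ONE-Glo, wait 30 min, read luminescence.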
For `Cc1cccc(NC(=O)C2CCN(S(=O)(=O)c3c(C)c(C)cc(C)c3C)CC2)n1`, the Potency was inconclusive: 16.4 µM [inhibitor, partial curve, poor fit]. With `COc1ccc(OC)c2c(N3CC(C)OC(C)C3)cc(C(F)(F)F)nc12` (stereo not drawn) the Potency was inconclusive: 9.2 µM [activator, partial curve]. With `Cc1ccc(C(=O)NC(=S)NCC2CCCO2)cc1` (stereo not drawn) the Potency was inconclusive: 14.6 µM [activator, partial curve]. For `O=C(N=C1SCC(=O)N1c1ccccc1)c1ccco1`, the Potency was inconclusive: 20.6 µM [activator, partial curve]. For `O=C(Nc1nccs1)c1nc(-c2ccccc2)n(-c2ccccc2)n1`, the Potency was inconclusive: 20.6 µM [inhibitor, single point]. In the case of `CCOc1cccc2sc(Nc3nc4ccc(NC(C)=O)cc4s3)nc12`, the Potency is reported as inconclusive: 29.1 µM [inhibitor, single point]. In the case of `Cc1onc(-c2ccccc2Cl)c1C(=O)N1CC(C)CC(C)C1` (stereo not drawn), the Potency is reported as inconclusive: 4.61 µM [activator, single point]. For `COc1ccc(C(=O)N/N=C/c2cc3ccccc3[nH]c2=S)cc1`, the Potency was inconclusive: 23.1 µM [inhibitor, partial curve]. In the case of `CCn1nnc(-c2ccc(N)cc2)n1`, the Potency is reported as inconclusive: 6.51 µM [inhibitor, single point]. With `CCOc1cc(/C=C2/C(=O)ON=C2C)ccc1OCc1ccccc1F` the Potency was inconclusive: 29.1 µM [activator, single point]. With `Cc1cc(C(=O)O)c(C)n1Cc1ccncc1` the Potency was inconclusive: 0.164 µM [activator, partial curve, poor fit]. For `CCC1S/C(=N/N=C/c2ccco2)N(Cc2ccccc2C)C1=O` (stereo not drawn), the Potency was inconclusive: 32.6 µM [activator, single point]. In the case of `Cc1cccc(/C(N)=N/OC(=O)c2cccc3ccccc23)c1`, the Potency is reported as inconclusive: 13 µM [activator, partial curve]. In the case of `Cn1c(/C(C#N)=C(\O)c2cccc(F)c2)nc2ccccc21`, the Potency is reported as “inactive”. With `CC1Cc2ccccc2N1S(=O)(=O)c1cccc(C(=O)NCc2ccncc2)c1` (stereo not drawn) the Potency was “inactive”. For `Cc1ccc(SCC(=O)c2ccc(CC(=O)O)s2)cc1`, the Potency was “inactive”. With `COc1cccc(Nc2nc(-c3sc(C)nc3C)cs2)c1` the Potency was inconclusive: 35.5 µM [inhibitor, single point]. In the case of `Cc1ccc(C23CC4CC(CC(C(=O)OCC(=O)N(C)C)(C4)C2)C3)cc1`, the Potency is reported as inconclusive: 29.1 µM [inhibitor, partial curve, poor fit]. In the case of `CNc1nc(Oc2ccc(=O)n(C)n2)nc(N2CCOCC2)n1`, the Potency is reported as inconclusive: 20.6 µM [activator, partial curve]. In the case of `Cc1ccccc1NC(=S)NNC(=O)c1csc2c1CCC(C)C2` (stereo not drawn), the Potency is reported as inconclusive: 1.16 µM [activator, full curve]. With `O=C1CSCC(=O)N1c1ccccc1` the Potency was “inactive”. With `O=C(Nc1ccc(C(=O)O)cc1)Nc1cccc2ccccc12` the Potency was “inactive”. For `O=[N+]([O-])/C(C(Cl)=C(Cl)Cl)=C(/NC1CC1)Sc1ccccc1`, the Potency was “inactive”. For `CC(=O)NCC(=O)NNC1CC(=O)N(c2cccc(Cl)c2)C1=O` (stereo not drawn), the Potency was “inactive”. With `CC(CC(=O)Nc1ccc2c(c1)OCO2)c1ccccc1` (stereo not drawn) the Potency was inconclusive: 29.1 µM [activator, single point]. With `C(=C\c1ccccn1)/c1ccncc1` the Potency was inconclusive: 18.3 µM [activator, partial curve]. For `O=C(Nc1cccnc1)/C(N=Nc1c(Cl)cccc1Cl)=C(\O)c1ccccc1`, the Potency was inconclusive: 23.1 µM [inhibitor, single point]. With `C=CC[C@@H](CC(=O)OC(C)(C)C)C(=O)OC[C@@H]1CCCN1C(=O)[C@@H](CC=C)CC(=O)N[C@@H](CO)Cc1ccccc1` the Potency was “inactive”. For `CCOC(=O)C1CCCN(c2nc3ccccc3nc2C(C#N)C(=O)OCC)C1` (stereo not drawn), the Potency was inconclusive: 32.6 µM [inhibitor, single point]. With `CS(=O)(=O)NN1C(=O)c2ccccc2NC1c1cc2ccccc2nc1Cl` (stereo not drawn) the Potency was inconclusive: 20.6 µM [activator, single point]. With `COc1cc(CC(NC(C)=O)C(=O)NC2CCN(c3c4c(nc5ncnn35)CCC4)CC2)cc(OC)c1` (stereo not drawn) the Potency was “inactive”. With `Cc1c(Cl)cccc1NC(CC(=O)c1ccccc1)C(=O)O` (stereo not drawn) the Potency was inconclusive: 23.1 µM [activator, partial curve, poor fit]. For `COc1ccc(C2CC(=O)C=C(NCc3ccccc3)C2)cc1` (stereo not drawn), the Potency was “inactive”. For `C=CCNC(=O)c1cc2c(=O)n3ccccc3nc2s1`, the Potency was inconclusive: 14.6 µM [activator, partial curve]. With `Cc1ccsc1C(=O)OCC(=O)Nc1ccc(Cl)cc1C(F)(F)F` the Potency was inconclusive: 6.51 µM [activator, partial curve, poor fit]. With `COc1ccc(CN2CCN(Cc3nc4ccccc4s3)CC2CCO)c(C)c1C` (stereo not drawn) the Potency was active: 16.4 µM. For `CCOC(=O)c1ccc(NC(=O)N2CCCCCC2)cc1`, the Potency was inconclusive: 9.2 µM [activator, partial curve]. For `Cc1c(NC(=O)c2ccc(-c3ccc([N+](=O)[O-])cc3Cl)o2)c(=O)n(-c2ccccc2)n1C`, the Potency was inconclusive: 29.1 µM [inhibitor, partial curve, poor fit]. With `Cc1nccn1CCc1n[nH]c(=S)n1Cc1ccccc1` the Potency was “inactive”. With `O=C(Nc1ccccc1C(=O)O)c1ccc(NC(=O)C2CC2)cc1` the Potency was “inactive”. In the case of `Cc1ccc(N=c2c([N+](=O)[O-])nn(-c3ccc(Cl)cc3)n2O)cc1C`, the Potency is reported as “inactive”. In the case of `O=C(NCCc1ccc(Cl)cc1)c1cccc(N2CCCC2=O)c1`, the Potency is reported as inconclusive: 10.3 µM [activator, partial curve]. With `C(=Nc1ccc(Nc2ccccc2)cc1)c1ccc2ccccc2c1` the Potency was “inactive”. For `O=C(COC(=O)CCCSc1nc2ccccc2[nH]1)Nc1ccc(Cl)cc1`, the Potency was “inactive”. In the case of `COc1ccc(-c2cn(CCO)nc2-c2ccc(OC)cc2)cc1`, the Potency is reported as “inactive”. For `O=C(O)C1=CC[C@@H](c2ccc(Cl)cc2)N(S(=O)(=O)c2ccc(Cl)cc2)[C@H]1c1ccc(Br)cc1`, the Potency was “inactive”. In the case of `Oc1c(Cl)cc(Cl)cc1CNc1ccc(Br)cn1`, the Potency is reported as inconclusive: 29.1 µM [activator, single point]. In the case of `CN(C)CCCN(C(=O)c1ccc2c(c1)CCCC2)c1nc2c(F)cccc2s1`, the Potency is reported as inconclusive: 11.6 µM [activator, partial curve, poor fit]. For `S=C(NC1CCCCC1)N(CCc1nc2ccccc2[nH]1)C1CCCC1`, the Potency was active: 23.1 µM. For `Cc1[nH]c2ccccc2c1SCC(=O)Nc1nccs1`, the Potency was inconclusive: 23.1 µM [activator, single point]. For `COC(=O)CSc1cccc2c1C(=O)CC2c1ccccc1` (stereo not drawn), the Potency was “inactive”. In the case of `CCCCN(C)C(=O)C(Cc1ccccc1)NS(=O)(=O)c1ccc2c(c1)c(=O)n(C)c(=O)n2C` (stereo not drawn), the Potency is reported as active: 14.6 µM. For `CCCNC(=O)c1onc(CSc2ccc(F)cc2)c1C(=O)NCCC`, the Potency was “inactive”. With `CC(OC(=O)c1cccc(S(=O)(=O)N2CCCC2)c1)C(=O)c1ccccc1` (stereo not drawn) the Potency was “inactive”. For `O=C(NCCc1c[nH]c2ccccc12)C(=O)NCC(c1ccco1)N1CCN(c2ccc(F)cc2)CC1` (stereo not drawn), the Potency was inconclusive: 2.31 µM [inhibitor, partial curve, poor fit]. For `O=C(N/N=C/c1ccccn1)c1cccc(NC(=O)c2ccccc2Cl)c1`, the Potency was “inactive”. With `Cc1oc(-c2ccccc2F)nc1CS(=O)(=O)CC(=O)N1CCCCCC1` the Potency was “inactive”. In the case of `CC(=O)c1c(C)[nH]c(C(=O)CN2CCN(S(=O)(=O)c3ccccc3[N+](=O)[O-])CC2)c1C`, the Potency is reported as inconclusive: 14.6 µM [inhibitor, partial curve, poor fit]. In the case of `CC(NC(=O)C[n+]1cccc(Br)c1)c1ccccc1` (stereo not drawn), the Potency is reported as inconclusive: 16.4 µM [activator, partial curve, poor fit]. For `COc1ccc(C2=NS(=O)(=O)N(C)C(C(=O)Nc3cc(OC)c(OC)c(OC)c3)=C2)cc1`, the Potency was inconclusive: 23.1 µM [inhibitor, single point]. In the case of `NC(=O)CC(NC(=O)c1ccccc1)c1ccc(N2CCc3ccccc3C2)c([N+](=O)[O-])c1` (stereo not drawn), the Potency is reported as “inactive”. In the case of `COc1ccc(CNC(=O)C(C#N)c2nc3ccccc3nc2N2CCCC2)cc1` (stereo not drawn), the Potency is reported as active: 5.8 µM. For `CCN(CC)S(=O)(=O)c1ccc(C(=O)Oc2coc(CSc3nc(C)cc(C)n3)cc2=O)cc1`, the Potency was inconclusive: 0.231 µM [inhibitor, partial curve, poor fit]. With `Cc1ccc(C)c(C(=O)CCC(=O)N2CCN(c3cccc(C(F)(F)F)c3)CC2)c1` the Potency was “inactive”. In the case of `O=C(c1cc(COc2ccc(F)cc2F)on1)N1CCN(C(=O)c2ccco2)CC1`, the Potency is reported as “inactive”. With `COc1ccc(OCC(=O)N/N=C2\CCCCc3ccccc32)cc1` the Potency was inconclusive: 25.9 µM [inhibitor, single point]. With `Cc1n[nH]c(=O)c2c(NC(=O)COC(=O)c3cc(F)cc(F)c3)oc(C)c12` the Potency was “inactive”. With `CC(=O)Nc1ccc(S(=O)(=O)Nc2ccc3c(c2)OCCO3)cc1Cl` the Potency was inconclusive: 20.6 µM [inhibitor, single point]. In the case of `O=C(O)c1ccccc1C(=O)NC1Cc2ccccc2C1`, the Potency is reported as “inactive”. For `O=C(Nc1ccc(Br)cc1Cl)c1ccc2c(=O)n3c(nc2c1)CCC3`, the Potency was inconclusive: 11.6 µM [activator, partial curve, poor fit]. For `COc1cc(NC(=O)c2ccc(OCc3c(C)noc3C)c(OC)c2)cc(OC)c1`, the Potency was active: 20.6 µM. For `Nn1c(SCC(=O)N2CCOCC2)nnc1C1CC1`, the Potency was “inactive”. For `Cc1ccc(CN2CC(C(=O)NNC(=O)Cn3ccc(C(F)(F)F)n3)CC2=O)cc1` (stereo not drawn), the Potency was “inactive”.
